Laboratory results: PubChem BioAssay AID504774 (Drosophila RNAi Screening Center, 2011)
In all, the deposit lists about 23,000 reagents; below is an unselected part of those with a known target gene and a result. 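Values are quantile-normalised luminescence on an arbitrary scale; higher means more cells surviving MMS.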 Not all columns of the deposit are shown.

Test: 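Genes required for cells to withstand methyl methanesulphonate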 (primary screen)
Cell system: Drosophila Kc167 cells
Reagents: long dsRNA against Drosophila genes, about 0.25 µg dsRNA per well
Timing: about 6 days: 3 days knock-down, then 3 days with or without MMS
Conditions: methyl methanesulphonate 0.004% (w/v) for 3 days after knock-down
Read-out: 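ATP-dependent luminescence as a measure of live cells in MMS-exposed wells, quantile normalised within each plate, with replicate values also given as a mean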
Scale: mean viability with MMS: higher = more surviving cells after MMS

no.	Target gene	amplicon	mean viability with MMS
1	CRAT	DRSC12523	3.64e6
2	Sf3a1	DRSC15166	3.01e6
3	dUTPase	DRSC01998	3.72e6
4	CG6454	DRSC16044	3.54e6
5	Impbeta11	DRSC07525	3.39e6
6	LManI	DRSC02838	3.51e6
7	BCL7-like	DRSC17729	3.63e6
8	HLH3B	DRSC18669	3.55e6
9	CG13065	DRSC09948	3.54e6
10	eRF3	DRSC03322	3.36e6
11	Snap29	DRSC04721	3.55e6
12	Acat2	DRSC08630	3.68e6
13	Cpr76Bc	DRSC11062	3.52e6
14	gcm	DRSC03536	3.52e6
15	CAH13	DRSC06128	3.47e6
16	ETHR	DRSC15915	3.61e6
17	CG7694	DRSC16288	3.54e6
18	MCPH1	DRSC06309	3.59e6
19	MCPH1	DRSC07308	3.38e6
20	MCPH1	DRSC22536	3.64e6
21	RanBP3	DRSC14217	3.03e6
22	RanBP3	DRSC23153	3.40e6
23	CG31636	DRSC02276	3.53e6
24	Grl36b	DRSC01627	3.35e6
25	Acox3	DRSC03251	3.55e6
26	CG32718	DRSC17538	3.52e6
27	D19B	DRSC11134	3.53e6
28	Ir100a	DRSC14329	3.73e6
29	CG1602	DRSC06601	3.60e6
30	Tsp39D	DRSC03099	3.42e6
31	CG6426	DRSC06985	3.56e6
32	Cap-D3	DRSC02349	3.43e6
33	CG31223	DRSC15115	3.37e6
34	CG1492	DRSC19605	3.40e6
35	jim	DRSC11889	3.64e6
36	Osi3	DRSC12175	3.47e6
37	CG3473	DRSC01915	3.53e6
38	ftz-f1	DRSC11347	3.36e6
39	lap	DRSC12628	3.67e6
40	CG34169	DRSC01579	3.54e6
41	Mlp60A	DRSC04623	3.46e6
42	Mlp60A	DRSC22233	3.23e6
43	Mlp60A	DRSC22481	3.63e6
44	Dus3	DRSC02059	3.33e6
45	CG9890	DRSC04590	3.54e6
46	CG11788	DRSC06084	3.50e6
47	CG7800	DRSC16315	3.68e6
48	abo	DRSC02926	3.60e6
49	CG12567	DRSC20845	3.60e6
50	Gr59b	DRSC04179	3.54e6
51	Gapdh1	DRSC07433	3.54e6
52	mthl2	DRSC10287	3.51e6
53	Dlip3	DRSC07401	3.85e6
54	CG42340	DRSC17458	3.66e6
55	CG42340	DRSC17841	3.62e6
56	CG42340	DRSC18305	3.65e6
57	CG42340	DRSC21619	3.76e6
58	Vm32E	DRSC03474	3.56e6
59	inaF-B	DRSC18903	3.64e6
60	HipHop	DRSC10734	3.56e6
61	CG4546	DRSC15593	3.47e6
62	Jon65Aiv	DRSC10644	3.64e6
63	CAH9	DRSC15963	3.65e6
64	Trf4-2	DRSC15237	3.70e6
65	ranshi	DRSC16564	3.54e6
66	Prx6c	DRSC06080	3.64e6
67	CG12123	DRSC17818	3.75e6
68	CG6231	DRSC15997	3.48e6
69	Polr3B	DRSC07536	3.28e6
70	CG9864	DRSC07346	3.46e6
71	Polr2C	DRSC03415	3.01e6
72	CG2839	DRSC00544	3.48e6
73	CG7135	DRSC20026	3.55e6
74	CG18284	DRSC02661	3.60e6
75	CG18284	DRSC20756	2.45e6
76	TORIP	DRSC10104	3.60e6
77	magu	DRSC06832	3.56e6
78	CG10274	DRSC09716	3.54e6
79	Tengl1	DRSC00481	3.55e6
80	CG14505	DRSC06476	3.50e6
81	mod	DRSC16999	3.56e6
82	CG32686	DRSC17645	3.43e6
83	mRpL42	DRSC06235	3.62e6
84	CG9626	DRSC16525	3.62e6
85	Rift	DRSC14330	3.59e6
86	CG33465	DRSC05587	3.50e6
87	Mal-A7	DRSC06077	3.59e6

Reprinted from the entries so far, 12 entries:
no.	Target gene	amplicon	mean viability with MMS
8	HLH3B	DRSC18669	3.55e6
9	CG13065	DRSC09948	3.54e6
10	eRF3	DRSC03322	3.36e6
11	Snap29	DRSC04721	3.55e6
12	Acat2	DRSC08630	3.68e6
13	Cpr76Bc	DRSC11062	3.52e6
14	gcm	DRSC03536	3.52e6
15	CAH13	DRSC06128	3.47e6
16	ETHR	DRSC15915	3.61e6
17	CG7694	DRSC16288	3.54e6
18	MCPH1	DRSC06309	3.59e6
19	MCPH1	DRSC07308	3.38e6
